Results are given in words; binding and its absence hold for the method and conditions named. Binding seen in cells or lysates may run through a third protein. Some binding calls cover weakened binding; strength is not graded here.

Amino acid sequences for entries named in this document (tags omitted).
UniProt Q00534: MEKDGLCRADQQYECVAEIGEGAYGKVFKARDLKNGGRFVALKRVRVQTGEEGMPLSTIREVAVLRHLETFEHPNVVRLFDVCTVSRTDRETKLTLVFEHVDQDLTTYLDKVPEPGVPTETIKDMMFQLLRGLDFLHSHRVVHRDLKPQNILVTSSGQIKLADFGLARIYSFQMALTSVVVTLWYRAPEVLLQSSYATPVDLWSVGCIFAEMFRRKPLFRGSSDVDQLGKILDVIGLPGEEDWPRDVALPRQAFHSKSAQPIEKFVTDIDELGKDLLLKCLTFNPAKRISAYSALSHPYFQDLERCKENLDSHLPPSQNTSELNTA

In the assay the target is T1, MEX3A (human) (UniProt A1L020).
T1 sequence: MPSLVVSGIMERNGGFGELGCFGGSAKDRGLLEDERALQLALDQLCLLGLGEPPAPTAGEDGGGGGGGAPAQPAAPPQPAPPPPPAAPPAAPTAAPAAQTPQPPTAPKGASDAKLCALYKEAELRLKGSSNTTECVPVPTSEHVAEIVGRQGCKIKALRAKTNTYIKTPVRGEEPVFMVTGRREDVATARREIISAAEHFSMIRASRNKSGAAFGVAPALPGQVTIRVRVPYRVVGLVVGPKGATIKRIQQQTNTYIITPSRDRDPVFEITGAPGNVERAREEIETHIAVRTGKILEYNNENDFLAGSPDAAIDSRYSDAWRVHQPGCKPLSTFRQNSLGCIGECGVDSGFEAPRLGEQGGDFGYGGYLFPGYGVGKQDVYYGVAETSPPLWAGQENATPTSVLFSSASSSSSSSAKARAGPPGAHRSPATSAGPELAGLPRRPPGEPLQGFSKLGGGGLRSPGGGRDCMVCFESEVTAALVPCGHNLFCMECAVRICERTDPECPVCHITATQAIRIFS
Put plainly: co-IP; not described in the methods; cells, precipitating antibody and bait are not told.

CDK6 (from UniProt Q00534 1-326): the binding entry was “binds”.

The record behind these values is article PMC7695430.
